According to patent US6653529B2, “Use of the maize X112 mutant ahas 2 gene and imidazolinone herbicides for selection of transgenic monocots, maize, rice and wheat plants resistant to the imidazolinone herbicides” (BASF Aktiengesellschaft, priority 2000, dated 2003):
Some results were stated once for a whole list of compounds, not compound by compound. For at least one compound, name, drawing or mass did not settle the structure.

System: rice plants (transgenic Lines 26 and 29; Nt control)
Assay: Greenhouse herbicide tests on rice
Assay type: in vivo
From the text: We evaluated the response of transgenic rice to PURSUIT® imazethapyr application in the greenhouse. In this experiment, we included 2 transgenic lines and their untransformed counterpart (Nt). The transgenic lines, designated as Line 26 and 29, were T3 progeny derived from previously identified homozygous resistant transgenic plants containing the maize XI12 ahas2 gene driven by its own promoter. All seeds were pre-germinated in water for 2-3 days then grown in a planting mixture consisting of 1:1 soil and MetroMix 360 (The Scotts Company, Marysville, Ohio 43040) in 6-inch pots (2 seeds per pot) in the greenhouse and sprayed with PURSUIT® imazethapyr at 63, 125, or 250 g ai/ha. […] Five plants from each treatment were randomly chosen and individually measured for morphological traits. Means and standard deviations were calculated over three replications. Plant heights were measured from the base of the plant to the tip of the flag leaf 93 days after herbicide applications (DAH) and number of tillers per plant were counted 102-103 DAH. […]
A total of 9 herbicides, 5 imidazolinones, two rice herbicides and ACCENT® (nicosulfuron) and CLASSIC® (clorimuron-ethyl) were applied in this study. […] For simplicity and convenience, the lowest concentration used is referred as 1× rate, 2, 4 and 6× rates can be calculated as multiples of 1×. […]

SMILES | rate up to which growth of transgenic plants was not affected (post-emergence, fresh weight and visual observation) | seed-set, on average (plants treated with the two rice herbicides (and plants without herbicide))
Cc1cnc(C2=NC(=O)C(C)(C(C)C)N2)c(C(=O)O)c1 (centres unmarked) [CADRE ®, imazameth] | up to 4 × | –
COC(=O)c1ccccc1CS(=O)(=O)NC(=O)Nc1nc(OC)cc(OC)n1 [LONDAX ®, bensulfuron-methyl] | – | 80-98%
